The results in this text go back to PubChem BioAssay AID328 (DTP/NCI, 2004).

The experiment deals with BDF1 mice, P388 leukemia ip, median survival T/C. Put plainly: NCI In Vivo Anticancer Drug Screen. Data for tumor model P388 Leukemia (intraperitoneal) in B6D2F1 (BDF1) mice. The following applies: T/C endpoint: median survival time, higher T/C = longer survival. The method, then: The antitumor activity of compounds was measured in mice bearing transplantable tumors. Survival or tumor size were measured and the results are expressed as the measurement made in the treated group (T) divided by the measurement made in the vehicle treated control group (C). The tumor model used in this assay is P388 Leukemia (intraperitoneal) in B6D2F1 (BDF1) mice

Setting [1] is: dose: 50.0 mg/kg/injection, schedule: Q01DX009 (ip), vehicle: saline.
Where [2] appears, read: dose: 400.0 mg/kg/injection, schedule: Q04DX003 (ip), vehicle: water.
The mark [3] stands for this setting: dose: 2.0 mg/kg/injection, schedule: Q04DX003 (ip), vehicle: saline with Tween-80.
[4] abbreviates: dose: 200.0 mg/kg/injection, schedule: Q04DX003 (ip), vehicle: saline with Tween-80.
The mark [5] stands for this setting: dose: 400.0 mg/kg/injection, schedule: Q04DX003 (ip), vehicle: saline with Tween-80.
Where [6] appears, read: dose: 100.0 mg/kg/injection, schedule: Q01DX009 (ip), vehicle: saline with Tween-80.
Setting [7] is: dose: 100.0 mg/kg/injection, schedule: Q04DX003 (ip), vehicle: saline.
[8] abbreviates: dose: 200.0 mg/kg/injection, schedule: Q04DX003 (ip), vehicle: saline.
Setting [9] is: dose: 400.0 mg/kg/injection, schedule: Q04DX003 (ip), vehicle: saline.

The list does not hold the whole screen: it gathers tests that were run many times, whatever their T/C, doses with no T/C, and many T/C values between a quarter and a half above the control. Other doses and runs of a compound stand elsewhere. T/C gives the treated animals as a percentage of the vehicle group. Some doses have a count of surviving animals in place of a T/C: the source holds a T/C of zero for them, seemingly a mark for toxic or unscored doses. Some doses without a T/C left all or most animals alive at the check, yet need not have been tolerated: the source hardly ever lists a survival T/C far under the control, and the zero likely stands for such cases as well. Survivors were counted at the toxicity check, usually on the fifth day, unless a day is given; later deaths do not show. Schedule codes are those of the source, read here as Q, the interval in days (D) or hours (H), X, the number of doses. For survival time, this PubChem deposit counts one and a half times the control or more as active, and values a quarter to a half above the control carry no call in these data; other NCI protocols may use other cut-offs. Marks such as (2×) give the number of equal values in this list. Some entries were tested several times; the results are listed from low to high. Some T/C values are followed by the survivors on the day toxicity was checked, most often the fifth; where none is given, no animal had died by that day.

Regarding `C1OCN2CSCC12` (centres undefined), the T/C runs as follows: (dose: 200.0 mg/kg/injection, schedule: Q04DX002 (ip), vehicle: suspension in saline) 126 % of control [5 of 6 alive]; (dose: 400.0 mg/kg/injection, schedule: Q04DX002 (ip), vehicle: suspension in saline) 126 % of control.
Consider `BrCC1(CBr)CCCCC1`, for which the survivor count runs as follows: (dose: 100.0 mg/kg/injection, schedule: Q04DX002 (ip), vehicle: saline with Tween-80) 5 of 6; (dose: 200.0 mg/kg/injection, schedule: Q04DX002 (ip), vehicle: saline with Tween-80) 1 of 6; (dose: 400.0 mg/kg/injection, schedule: Q04DX002 (ip), vehicle: saline with Tween-80) 0 of 6.
Turning to `C1=C(c2ccccc2)[P+](c2ccccc2)(c2ccccc2)C=C(c2ccccc2)[P+]1(c1ccccc1)c1ccccc1`, the T/C was 125 % of control (dose: 3.3 mg/kg/injection, schedule: Q04DX003 (ip), vehicle: saline); 130 % of control (dose: 5.0 mg/kg/injection, schedule: Q04DX003 (ip), vehicle: saline); 130 % of control (2×) (dose: 7.5 mg/kg/injection, schedule: Q04DX003 (ip), vehicle: saline); 130 % of control (dose: 8.0 mg/kg/injection, schedule: Q01DX009 (ip), vehicle: saline); 126 % of control (dose: 12.0 mg/kg/injection, schedule: Q01DX009 (ip), vehicle: saline); 141 % of control (dose: 12.5 mg/kg/injection, schedule: Q01DX009 (ip), vehicle: saline). In addition, the T/C runs as follows: (dose: 17.0 mg/kg/injection, schedule: Q04DX003 (ip), vehicle: saline) 136 % of control; (dose: 18.0 mg/kg/injection, schedule: Q01DX009 (ip), vehicle: saline) 142 % of control; (dose: 25.0 mg/kg/injection, schedule: Q01DX009 (ip), vehicle: saline) 129 % of control; (dose: 25.0 mg/kg/injection, schedule: Q04DX003 (ip), vehicle: saline) 127 and 130 % of control. Besides, the survivor count under setting [1] was 5 of 6.
Regarding `[CH3][Hg][O]C(C)=O`, the survivor count is recorded as 0 of 6 (dose: 12.5 mg/kg/injection, schedule: Q01DX009 (ip), vehicle: Klucel (hydroxypropylcellulose) (HPC)) and 0 of 6 (dose: 25.0 mg/kg/injection, schedule: Q01DX009 (ip), vehicle: Klucel (hydroxypropylcellulose) (HPC)).
For `Cc1ccc(S(=O)(=O)c2ccc(Sc3cccc[n+]3[O-])c3nonc23)cc1`, the T/C (dose: 50.0 mg/kg/injection, schedule: Q01DX009 (ip), vehicle: saline with Tween-80) is 131 % of control.
For `COc1cc(C(=O)OC2CC34CCNC35CC(OC5(OC)C2O)c2cc3c(cc24)OCO3)ccc1O` (centres undefined), the survivor count by setting is: (dose: 2.0 mg/kg/injection, schedule: Q01DX010 (ip), vehicle: carboxymethylcellulose (CMC)) 5 of 6; (dose: 4.0 mg/kg/injection, schedule: Q01DX010 (ip), vehicle: carboxymethylcellulose (CMC)) 6 of 6; (dose: 8.0 mg/kg/injection, schedule: Q01DX010 (ip), vehicle: carboxymethylcellulose (CMC)) 2 of 6.
With `BrCCC1(CCBr)CCCCC1`, the T/C under setting [2] was 136 % of control.
With `O=C(NCCCCCCCCCCNC(=O)N1CC1)N1CC1`, the T/C under setting [3] was 145 % of control. Also, the survivor count runs as follows: (dose: 100.0 mg/kg/injection, schedule: Q04DX003 (ip), vehicle: saline with Tween-80) 1 of 6; under setting [4], 0 of 6; under setting [5], 0 of 6.
`Fc1c(Cl)c(Cl)c(Cl)c(Cl)c1Cl`: the T/C under setting [6] is 130 % of control.
As to `COC1=C(OC)C(=O)C2=C(OCCO2)C1=O`, the survivor count by setting is: (dose: 200.0 mg/kg/injection, schedule: Q01DX001 (ip), vehicle: saline with Tween-80) 0 of 6; (dose: 400.0 mg/kg/injection, schedule: Q01DX001 (ip), vehicle: saline with Tween-80) 0 of 6.
On to `C=CC[N+](CC)(CC)Cc1ccc(C[N+](CC)(CC)CC=C)cc1`, for which the survivor count is listed as 0 of 6 under setting [7], 0 of 6 under setting [8] and 0 of 6 under setting [9].
As to `O=c1[nH]c2c(ccc3cccnc32)c2c1CCC2`, the survivor count under setting [4] was 6 of 6.
For `N/C(=N\O)c1nn(C2OC(CO)C(O)C2O)c2ncnc(N)c12` (centres undefined), the survivor count is 5 of 6 under setting [1]; 4 of 6 (dose: 100.0 mg/kg/injection, schedule: Q01DX009 (ip), vehicle: saline); 0 of 6 under setting [8]; 0 of 6 under setting [9]. Further, the T/C under setting [7] is 133 % of control.
On to `CCOC(=O)c1c[nH]c2ccc(N(CCCl)CCCl)cc12`, for which the T/C reads like this: (dose: 0.66 mg/kg/injection, schedule: Q01DX009 (ip), vehicle: saline with Tween-80) 129 % of control; (dose: 1.0 mg/kg/injection, schedule: Q01DX009 (ip), vehicle: saline with Tween-80) 132 % of control; under setting [3], 136 % of control; (dose: 2.2 mg/kg/injection, schedule: Q04DX003 (ip), vehicle: saline with Tween-80) 133 % of control; (dose: 3.0 mg/kg/injection, schedule: Q04DX003 (ip), vehicle: saline with Tween-80) 136 % of control; (dose: 3.3 mg/kg/injection, schedule: Q04DX003 (ip), vehicle: saline with Tween-80) 145 % of control.
`O=C1CN(Cc2ccc(Cl)cc2)CC(=O)N2CCCN12`: the survivor count is given as 5 of 5 (dose: 100.0 mg/kg/injection, schedule: Q01DX005 (ip), vehicle: saline with Tween-80) and 5 of 5 (dose: 200.0 mg/kg/injection, schedule: Q01DX005 (ip), vehicle: saline with Tween-80).
Regarding `CO[C@@H]([CH2][Hg][S]C#N)[C@@H]([CH2][Hg][S]C#N)OC`, the survivor count is 1 of 6 (dose: 50.0 mg/kg/injection, schedule: Q01DX009 (ip), vehicle: other); 0 of 6 (dose: 100.0 mg/kg/injection, schedule: Q01DX009 (ip), vehicle: other); 0 of 6 (dose: 100.0 mg/kg/injection, schedule: Q04DX003 (ip), vehicle: other); 0 of 6 (dose: 200.0 mg/kg/injection, schedule: Q04DX003 (ip), vehicle: saline sonified); 0 of 6 (dose: 400.0 mg/kg/injection, schedule: Q04DX003 (ip), vehicle: saline sonified).
In the case of `CCOC(=O)CCOc1ccccc1N(CCCl)CCCl`, the T/C is 126 % of control (dose: 3.0 mg/kg/injection, schedule: Q01DX009 (ip), vehicle: saline); 134 % of control (dose: 6.0 mg/kg/injection, schedule: Q01DX009 (ip), vehicle: saline); 145 % of control (dose: 6.25 mg/kg/injection, schedule: Q04DX003 (ip), vehicle: other); 126 % of control (dose: 8.0 mg/kg/injection, schedule: Q04DX003 (ip), vehicle: saline); 147 % of control (dose: 18.0 mg/kg/injection, schedule: Q04DX003 (ip), vehicle: saline). Further, the survivor count (dose: 37.5 mg/kg/injection, schedule: Q04DX003 (ip), vehicle: other) is reported as 1 of 6.
On to `NNc1c(C(N)=O)c2c(N)ncnc2n1C1OC(CO)C(O)C1O` (centres undefined), for which the survivor count under setting [2] is given as 2 of 6.
As for `Cc1ccccc1NC=O`, the T/C was 145 % of control under setting [6] and 145 % of control (dose: 200.0 mg/kg/injection, schedule: Q01DX009 (ip), vehicle: saline with Tween-80).
As to `Cc1cc(N(CCCl)CCCl)ccc1C=Nc1cccc(Cl)c1`, the survivor count under setting [5] was 6 of 6.
For the molecule `CC[N+](C)(C)c1ncnc2nc[nH]c12`, the survivor count is, setting by setting: under setting [1], 6 of 6; under setting [9], 1 of 6.
